According to PubChem BioAssay AID1508600 (Functional Genomics Laboratory (NCATS/FGL), 2020):
Out of some 53,000 sequences screened, about 3,700 (7%) were called active.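 Rule for the calls: active = gene knockdowns whose robust z-score for IL-1 alpha signal is at least 2 or at most -2, so actives lie on both sides; inactive = the rest.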 Some of the results follow.

experiment: Components of the Cytosolic LPS Sensing Pathway: Gene Identification via Genome-wide siRNA Screen; details: RAW264.7 macrophages, IL-1a HTRF, actives lie on both sides, screened at 100 nM (by protocol), cells primed 5 h with Pam3CSK4 first;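 note: robust z of the log signal after scaling to non-targeting control siRNA wells of the plate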
Outline: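 Using IL-1a HTRF as read-out, the screen measured release from RAW264.7 cells after 48h siRNA knockdown (100 nM), 5 h Pam3CSK4 priming and 24 h cytosolic LipidA. Values were expressed relative to negative-control wells as robust z-scores.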

Row | Sequence | z-score
1 | GGCAUUGAAGCAUCUGUUCTT against Cd180 | inactive: -1.7
2 | GGAAGUCUUGAGCCUGCUUTT against Folr2 | inactive: -0.555
3 | CGAUCUGAGUUUUAUCUCUTT against Nrsn2 | inactive: 1.78
4 | GCUCGAUAUCACAGAGAUUTT against Ces5a | inactive: -0.177
5 | GGGUCAUCACCAUCAUGUCTT against Slc22a5 | inactive: -0.985
6 | GCCGGGACCAUGAUUAUAGTT against Rbm10 | active: 2.7
7 | CCUAGGUUGUCGCCAGGUUTT against Nkx2-3 | inactive: 0.722
8 | GGAUUACCAAUCGGCCAAGTT against Egr3 | inactive: 1.25
9 | CGAAGCAUUAGAUUUUGACTT against Mcm9 | inactive: 0.177
10 | GGCCUUCAACGAUUCAAUCTT against Olfr770 | inactive: 1.35
11 | GCUACAGCAGACAUAGAAATT against Sparcl1 | inactive: 0.0109
12 | GGGAAUUAGCCAUUAUAACTT against Pcdhb11 | inactive: 0.0338
13 | GGAAAAUCAUUUCAUCGUGTT against Aurkc | inactive: 0.489
14 | GGCUGUUCAGAAGUUCACGTT against Saa3 | inactive: -1.25
15 | GGACUUUAGCAAAAUCGGCTT against Gm5535 | inactive: 0.137
16 | GGGACUCUCAAAAUUCACUTT against Bnc2 | inactive: 0.423
17 | GGUUGGCACAACUGUGUACTT against Cr2 | inactive: -0.0754
18 | GGAUACGAGACAAUGAGAATT against Kctd2 | inactive: -0.404
19 | CCUGUUGGACCUUAUUCCCTT against Plbd1 | inactive: 0.694
20 | GGAACAAGAGAAGCAAAUATT against Ifitm7 | inactive: -0.278
21 | GGUAUUUGAAGAUGUCAAATT against Abcd1 | inactive: -0.479
22 | GGUUCACUUCAGUGUAUAUTT against Morf4l1 | inactive: -0.00162
23 | GGUCAUAAGUUUCUCAUCUTT against Gdpd1 | inactive: -0.476

Part of the list above in a different format:
GGUUGGCACAACUGUGUACTT against Cr2
  z-score: inactive: -0.0754
GGAUACGAGACAAUGAGAATT against Kctd2
  z-score: inactive: -0.404
CCUGUUGGACCUUAUUCCCTT against Plbd1
  z-score: inactive: 0.694
GGAACAAGAGAAGCAAAUATT against Ifitm7
  z-score: inactive: -0.278

Further records.

Row | Sequence | z-score
24 | GGAUUAGACCUAUGGUGCUTT against Dpp6 | inactive: 0.77
25 | GGUGUUUUUGAUGAGAGUGTT against Ints5 | inactive: 0.612
26 | GGAAUGAAUAAGUAGAGACTT against Unc5cl | inactive: -0.137
27 | GGCUUUACAAAUCUUGUCUTT against Gpx6 | inactive: -1.31
28 | GCCUCUUAUUUGGUUACGATT against Best3 | inactive: 0.605
29 | GGCUAGUUGCCAUGAUGCATT against Spink1 | inactive: -1.22
30 | GGAACUGAUCUGGAAGAAUTT against Sord | inactive: -0.392
31 | GGUUGAGUUCCUGUAACUUTT against Mat1a | inactive: -0.732
32 | GUUCUACAUCAAGACAUCCTT against Crabp1 | inactive: -1.27
33 | GGACGAUUCAAGGUAACAUTT against Esrrg | inactive: -1
34 | GCAACAUCACACAAGACCATT against Il13 | inactive: 0.731
35 | GCUAGAGUAUGAGAACUUCTT against Cdc14b | inactive: 0.233
36 | GGAAUGUUUGGUGCUAUGATT against Flvcr2 | active: 3.4
37 | GGACUUCUUGGACCUACUUTT against F5 | inactive: -1.55
38 | GCGAUCAGUACUGAAGGAATT against Siglecf | inactive: -1.27
39 | CCUUCUGUUGCUUAUACAUTT against Tmem192 | inactive: 0.679
40 | GGAUCUGGUUGGCAAGCAUTT against Krt33a | active: 2.87
41 | GGAACAUUUCACCUUUUAGTT against Sptssa | inactive: -1.35
42 | GGAGAUCUAUUCGGACACUTT against Inpp5a | inactive: 1.52
43 | GGACAAAGGUGUCAACUCCTT against Crmp1 | inactive: -1.99
44 | GGUUAUCAAGGACCAAAAATT against Ivl | inactive: -0.555
45 | GCGGUAAGGAACUUAAUGATT against Fv1 | inactive: 0.189
46 | GCUCCAGAUGUCAAAUUAATT against Yipf4 | inactive: -0.23

Row | Sequence | z-score
47 | GGAAUUCGUCAACAACAUGTT against Csn1s1 | inactive: 0.0379
48 | GGCUUUCUCGUUUUGAUAUTT against Nln | inactive: 0.574
49 | GGCCUUUAAACAGAUUGAATT against Zfp37 | inactive: -0.321
50 | GGAACCAAUCUUGGUCUCATT against Tln2 | inactive: -0.66
51 | CCAACGAUGCUGUCAGAAATT against Gys2 | inactive: 0.453
52 | GGAGGAAGAAAUGGUCUGGTT against Tsga8 | inactive: -0.524
53 | GCAUCAAAGGUCUGAGACUTT against Magix | inactive: 0.649
54 | CCGUGAAUGUGAUAAUCCATT against Adamts8 | inactive: 0.417
55 | CCUGAAUGGAAAGAAUUGGTT against Gm6288 | inactive: -0.61
56 | GGCCUUCAGUGACAAAGACTT against Dmrt3 | inactive: -1.18
57 | GCCGUUCCCAUUAUCGUUUTT against Tmem87a | inactive: -0.693
58 | CCACUAAUCUUCUUCUACATT against Olfr1311 | active: -2.08
59 | GGAAGGAAGCUAAAAUACCTT against A130023I24Rik | inactive: 1.51
60 | GGAACUUGGGUGAAUAAAUTT against Serpind1 | inactive: -0.554
61 | GCCUUAAUGCUUCAAGGUGTT against Hspd1 | inactive: 0.021
62 | GUAUUUCUACUAUGUGGAUTT against C030006K11Rik | inactive: 0.484
63 | GCAUGAACACUCUGACUGCTT against Faap100 | inactive: -1.72
64 | GGUGCUGUGUGAGCUUUCATT against Zfp85os | inactive: -1.47
65 | CCUUAAUAAAUCUAGUGGCTT against Stmn3 | inactive: -0.567
66 | GGUCAAGUGUAAGAUGUUUTT against Dcps | inactive: -1.29
67 | GGUCAUUCUGUACAUACAUTT against Slc37a3 | inactive: -0.257
68 | GGAAAUAUGAUCCAUCCUGTT against Zfp282 | inactive: 1.36
